Data taken from ChEMBL document CHEMBL3988442, “University of Dundee, Small-Polar-MMV Screening Library” (2021).

Each number is a percent effect as filed. The record does not define 0% and 100%; most values in the screen are far below 50% and negative numbers occur (in some assays of this library far below -100). This is an unselected part of the compounds tested. Two or more numbers in one place are separate tests of the same structure; such repeats can differ widely.

T. brucei: 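Whole-parasite assay of Trypanosoma brucei over 72 hours; the read-out is not stated. Concentration: 30 µM. Higher reads as stronger inhibition (inferred: compounds with an IC50 in retests scored well above the rest). Values scatter widely below zero; nearly all retest evidence comes from the higher of the two concentrations used. Size under these conditions: about 64,000 compounds, about 940 of them at 50% or above in at least one test.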
Toxoplasma: 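Assay of Toxoplasma gondii numbers, read through their beta-galactosidase reporter with a colour substrate. Compounds at 10 µM. The record gives no direction; the compounds picked for IC50 retests had high values, so higher reads as fewer parasites. Size under these conditions: about 67,000 compounds, about 260 of them at 50% or above in at least one test.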
Leishmania in macrophages: 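Cell assay of Leishmania donovani living inside macrophages; the read-out is not stated. Tested at 30 µM. Higher reads as stronger inhibition (inferred: compounds with an IC50 in retests scored well above the rest). About 69,000 compounds were tested under these conditions; 1.5% (about 1,000) showed 50% or more at least once.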

compound	T. brucei	Toxoplasma	Leishmania in macrophages
N#Cc1cccc(NC(=O)N(CC(F)F)C2CC2)c1	-30.39	8.256	-16.74
Cl.O=C(CN1CCCC1)Nc1c2c(cc3c1CCC3)CCC2	-29.02	4.307	17.61
c1cnc(-c2nc(CN3CCCC(Cn4cncn4)C3)cs2)nc1 (configuration not stated)	8.258	5.227	16.86
O=C(O)C(F)(F)F.O=C(O)C(F)(F)F.[H][C@@]12C[C@@H](Oc3cncnc3)CN1CCN(Cc1cccc(C)n1)C2	-92.27	-6.877	42.71
NC(=O)CN1CCCC1c1csc(Nc2cnccn2)n1 (configuration not stated)	-26.03	8.302	31.21 and -12.63
N#CC1(NC(=O)c2cc(Cl)ccc2OC(F)F)CCOCC1	-2.457	1.147	0.4929
[H][C@]12CC[C@]([H])(CN(S(C)(=O)=O)C1)N(C(=O)CCc1ccsc1)C2	-19.1	-17.01	42.41
[H][C@@]12CCN(C(=O)CN(C)C)C[C@]1(c1nc(C)no1)CCO2	6.473	-3.448	17.42
O=C(NCCNc1cc(N2CCCC2)cnn1)Nc1ccccc1F	-44.16	4.696	-10.6
[H][C@@]12C[C@H](C(=O)NCC3CC3)[C@@]([H])(CN(S(=O)(=O)c3cccc(C)c3)C1)O2	-59.53	-4.309	14.1
Cc1noc(CNc2ccc(CC(=O)N3CCSCC3)cc2)n1	-29.96	-11.03	0.03088
Cc1nccn1C1CCCN(C(=O)CCNc2ncccn2)C1 (configuration not stated)	4.98	-7.53	-4.975
Cc1cc(C(=O)N2CCc3nc(C4CCCCN4)ncc3C2)cs1.Cl (configuration not stated)	-27.32	-8.716	-4.225 and 8.167
O[C@H]1[C@H](n2cc(-c3cccnc3)nn2)c2ccccc2C12CCNCC2	-12.96	7.967	2.342
O=S(=O)(N1CCOCC1)N1CCOC(CCCc2ccccc2)C1 (configuration not stated)	-2.609	-1.061	14.61
O=C(NC1CCN(c2ncccn2)CC1)c1cc2c([nH]c1=O)CCC2	-11.12	3.16	19.53
COc1cccc(CN2CCC3(CCN(c4ncc(C)cn4)C3)C2=O)c1 (configuration not stated)	-24.02	25.07	11.85 and 9.027
Cc1cnc(C(=O)N2CCC3(CCCN(c4nncs4)C3)C2)cn1 (configuration not stated)	-29.87	-15.89	29.83
CN(C)C1COC2(CCN(Cc3nccs3)CC2)C1.O=C(O)C(F)(F)F.O=C(O)C(F)(F)F (configuration not stated)	-5.42	11.96	15.46
CCN(CC1CCOC1)C(=O)c1ccccc1S(=O)(=O)CC (configuration not stated)	-4.743	-2.822	-2.653
O=C(NCCNc1cnccn1)N1CCN(c2nccs2)CC1	-8.451	-35.64	4.863
CCOc1ccccc1CNC(=O)c1cnn(CC)c1C(F)(F)F	-60.15	11.27	-7.539 and 0.8177
O=C(NCc1ccco1)N1CCC(n2ccc(C(F)(F)F)n2)CC1	-15.14	13.77	17.86
[H][C@]12CCN(C(N)=O)[C@@]1([H])CC[C@H](COCC(=O)N1CCCC1)O2	-49.5	13.83	-15.21
[H][C@]12CC[C@]([H])(CN(Cc3ccc(OC)cc3)C1)N(Cc1snnc1C)C2	-30.83	-7.568	-20.42
Cc1noc(C)c1-c1cccc(C2CN(CC(=O)N(C)C)CCO2)n1.O=CO (configuration not stated)	-10.64	-9.202	19.81
O=C(O)C(F)(F)F.[H][C@@]12CN(Cc3ccsc3)C[C@]1([H])[C@@H]2CC(=O)N1CCCC1	-20.19	-9.33	-23.43
CCN(CC)c1ccc(C(=O)N(C)Cc2c(C)noc2C)cn1	-21.43	0.1883	-15.03
COc1ncccc1CNC(=O)Nc1cc(C)nn1C	-12.12	-5.572	15.74
COc1ccc(CNCC(C)Oc2ccccn2)cc1.Cl (configuration not stated)	-15.32	4.792	2.992
O=C(O)C(F)(F)F.[H][C@@]12OCCN(C(=O)c3ccc(F)cc3)[C@@]1([H])CC[C@H]2OCCN(C)C	-19.82	3.416	-3.04
COCC(c1cccc(C(F)(F)F)c1)N(C)C(=O)c1ccoc1 (configuration not stated)	11.29	-7.003	29.13
CC(c1ccc(F)cc1F)N1CCN(CCC(=O)NC(N)=O)CC1 (configuration not stated)	-41.59	7.514	-5.423
CC(C)c1nc(C2CCCN2CC(=O)N2CCc3ccccc32)no1 (configuration not stated)	-26.02	-11.15	4.214
O=S(=O)(Cc1ccccc1Cl)CC(O)CO (configuration not stated)	-7.606	15.37	-3.178
Cc1nc(C)n(CCCNc2ncnc(C)c2C)n1	-24.05	-1.746	-8.638
COCCN1CCC(CNC(=O)Nc2ccc(SC(F)(F)F)cc2)C1 (configuration not stated)	90.18	-10.36	43.78
CCn1cc(CNC2CCN(c3c(F)cccc3F)C2)cn1 (configuration not stated)	13.53	-6.162	4.269

Repeated from the top, 5 entries:

{"compound": "N#Cc1cccc(NC(=O)N(CC(F)F)C2CC2)c1", "T. brucei": -30.39, "Toxoplasma": 8.256, "Leishmania in macrophages": -16.74}
{"compound": "Cl.O=C(CN1CCCC1)Nc1c2c(cc3c1CCC3)CCC2", "T. brucei": -29.02, "Toxoplasma": 4.307, "Leishmania in macrophages": 17.61}
{"compound": "c1cnc(-c2nc(CN3CCCC(Cn4cncn4)C3)cs2)nc1", "stereo": "configuration not stated", "T. brucei": 8.258, "Toxoplasma": 5.227, "Leishmania in macrophages": 16.86}
{"compound": "O=C(O)C(F)(F)F.O=C(O)C(F)(F)F.[H][C@@]12C[C@@H](Oc3cncnc3)CN1CCN(Cc1cccc(C)n1)C2", "T. brucei": -92.27, "Toxoplasma": -6.877, "Leishmania in macrophages": 42.71}
{"compound": "NC(=O)CN1CCCC1c1csc(Nc2cnccn2)n1", "stereo": "configuration not stated", "T. brucei": -26.03, "Toxoplasma": 8.302, "Leishmania in macrophages": "31.21 and -12.63"}